Results are given in words; binding and its absence hold for the method and conditions named. Binding seen in cells or lysates may run through a third protein. A yes stands for co-enrichment or nearness to the bait. Other partners may have been found. Where a sequence is shown, tags or fusion partners need not be part of it. Values belong to the binder of their own block, whether it stands above or below them.
Molecular target: T1, TRMT112-WT-BirA*-HA (human) (UniProt Q9UI30)
T1 sequence: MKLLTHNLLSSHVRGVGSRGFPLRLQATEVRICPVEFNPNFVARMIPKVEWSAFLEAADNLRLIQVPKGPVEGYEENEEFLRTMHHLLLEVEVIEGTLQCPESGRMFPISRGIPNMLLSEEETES
Assay: proximity labelling; BioID-MS in HEK293T cells: TRMT112-WT-BirA*-HA against the controls TRMT112-T5R-BirA*-HA, eGFP-BirA*-HA and BirA*-HA; 50 uM biotin for 24 h; streptavidin resin; nanoLC-MS/MS; five replicates

- binding: binds
B1: TRMT11 (enzyme, UniProt Q7Z4G4 1-463)
chain: MALSCTLNRYLLLMAQEHLEFRLPEIKSLLLLFGGQFASSQETYGKSPFWILSIPSEDIARNLMKRTVCAKSIFELWGHGQSPEELYSSLKNYPVEKMVPFLHSDSTYKIKIHTFNKTLTQEEKIKRIDALEFLPFEGKVNLKKPQHVFSVLEDYGLDPNCIPENPHNIYFGRWIADGQRELIESYSVKKRHFIGNTSMDAGLSFIMANHGKVKENDIVFDPFVGTGGLLIACAHFGAYVYGTDIDYNTVHGLGKATRKNQKWRGPDENIRANLRQYGLEKYYLDVLVSDASKPSWRKGTYFDAIITDPPYGIRESTRRTGSQKEIPKGIEKWEKCPESHVPVSLSYHLSDMFLDLLNFAAETLVLGGRLVYWLPVYTPEYTEEMVPWHPCLELVSNCEQKLSSHTSRRLITMEKVKKFENRDQYSHLLSDHFLPYQGHNSFREKYFSGVTKRIAKEEKSTQE

- binding: binds
B2: THUMPD3 (enzyme, UniProt Q9BV44 1-507)
chain: MCDIEEATNQLLDVNLHENQKSVQVTESDLGSESELLVTIGATVPTGFEQTAADEVREKLGSSCKISRDRGKIYFVISVESLAQVHCLRSVDNLFVVVQEFQDYQFKQTKEEVLKDFEDLAGKLPWSNPLKVWKINASFKKKKAKRKKINQNSSKEKINNGQEVKIDQRNVKKEFTSHALDSHILDYYENPAIKEDVSTLIGDDLASCKDETDESSKEETEPQVLKFRVTCNRAGEKHCFTSNEAARDFGGAVQDYFKWKADMTNFDVEVLLNIHDNEVIVGIALTEESLHRRNITHFGPTTLRSTLAYGMLRLCDPLPYDIIVDPMCGTGAIPIEGATEWSDCFHIAGDNNPLAVNRAANNIASLLTKSQIKEGKPSWGLPIDAVQWDICNLPLRTGSVDIIVTDLPFGKRMGSKKRNWNLYPACLREMSRVCTPTTGRAVLLTQDTKCFTKALSGMRHVWRKVDTVWVNVGGLRAAVYVLIRTPQAFVHPSEQDGERGTLWQCKE

From paper PMC10415138
